The chains are these.
B1: d301 (Fab, V domains shown)
VH: QSLEESGGRLVTPGTPLTLTCTVSGFSLSTYTLGWVRQAPGKGLEYIGWIDSSGSAYYASWAKGRFTISKASSTTVDLKMAGLTTEDTATYFCASGNTGGDPLYYGMDPWGPGTLVTVSS
VL: DPVLTQTPSSTSAAVGGTVTIKCQASQNIGRWLAWYQQKPGQPPKLLIYRASDLASGVPSRFKGSGSGTQFTLTISGVQREDAATYYCLGSYSSSDSAFGGGTEVVVK
notes: Chimeric rabbit/human Fab, kappa, with 6xHis tag; also called Fab d301; d301 r/h-IgG1k
B2: 3N07 (Fab, V domains shown)
VH: QSLEESGGRLVTPGTPLTLTCTVSGFSLSRYTMAWVRQAPGKGLEYIGWIDSSGSTYYASWAKGRFTISKTSSTTVDLKMTSLTTEDTATYFCASGNDGGDPLYYGMDPWGPGTLVTVSS
VL: DGVMTQTPSSTSAAVGGTVTIKCQASQSIRSWLSWYQQKPGQPPKLLIYEASKLASGVPSRFKGSRSGTEYTLAISGVQREDAATYYCLGSIASDDTAFGAGTNVEIK
notes: Chimeric rabbit/human Fab, kappa, with 6xHis tag; also called Fab 3N07; 3N07 r/h-IgG1k
B3: 5S8 (Fab, V domains shown)
VH: QSVEESGGRLVTPGTPLTLTCTVSGFSLSSYAMTWVRQAPGKGLEWIGVIGTSGMRYYANWAKGRFTISKTSTTVDLKITSPTTEDTATYFCARANFYVGNDESTDAFDPWGPGTLVTVSS
VL: ALVMTQTPPSLSASVGETVRIRCLASEDIYNTISWYQQKPGKPPTLLIYGASNLKSGVPPRFSGSGSGTDYTLTIGGVQSEDAATYYCLGGYSYSSTGLTFGAGTKVEIK
notes: Chimeric rabbit/human Fab, kappa, with 6xHis tag in SPR, zymosan and JeKo-1 assays; also called Fab 5S8; 5S8 r/h-IgG1k
B4: 3NS1 (Fab, V domains shown)
VH: QSVEESGGRLVTPGTPLTLTCTVSGFSLSNYIITWVRQAPGKGLEWIGMISTDGDTYYANWAKGRFTISKTSTTANLKITSPTTEDTATYFCARGLTNFFIWGPGTLVTVSS
VL: QPVLTQSPSVSAALGASAKLTCTLSSAHKTYSIGWYQQHQGEAPRFLMQLRRDGSYTKGTGVPDHFSGSSSGADRYLIIPNVQADDEADYYCGVDYDGGYVFGGGTQLTVTG
notes: Chimeric rabbit/human Fab, lambda, with 6xHis tag; also called 3NS1 r/h-IgG1λ

Results are given in words; binding and its absence hold for the method and conditions named. Binding can be weak; no strength is given.

In patent publication US20230029635A1 (US Dept. of Health and Human Services, published 2023) one finds binding data, which are given here for four molecules.

The target of the test is PNHCS/ΔC5 2h (human). The test can be described thus: flow cytometry: Fab at 2.5 µg/mL on JeKo-1 cells opsonized with 10 µg/mL rituximab and incubated with 50% C5-depleted human serum for 2 h without CR1. Background: A flow cytometer gives signals particle by particle.
On to B1, for which the binding result is “binds”. The value for B2 was “binds”; that for B3 was “binds”. The value for B4 was “binds”.
